# In US11634470B2, “Integrin binding peptides and uses thereof” (Universiteit Twente, priority 2015, dated 2023):
# Chains of the proteins cited; added tags and fusions are not shown. Residues count along the entry.
# UniProt P08648, 895-995 limits assumed: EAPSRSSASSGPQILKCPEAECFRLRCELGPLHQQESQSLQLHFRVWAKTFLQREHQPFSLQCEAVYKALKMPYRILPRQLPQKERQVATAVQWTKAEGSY
# UniProt P08648, 42-894 limits assumed: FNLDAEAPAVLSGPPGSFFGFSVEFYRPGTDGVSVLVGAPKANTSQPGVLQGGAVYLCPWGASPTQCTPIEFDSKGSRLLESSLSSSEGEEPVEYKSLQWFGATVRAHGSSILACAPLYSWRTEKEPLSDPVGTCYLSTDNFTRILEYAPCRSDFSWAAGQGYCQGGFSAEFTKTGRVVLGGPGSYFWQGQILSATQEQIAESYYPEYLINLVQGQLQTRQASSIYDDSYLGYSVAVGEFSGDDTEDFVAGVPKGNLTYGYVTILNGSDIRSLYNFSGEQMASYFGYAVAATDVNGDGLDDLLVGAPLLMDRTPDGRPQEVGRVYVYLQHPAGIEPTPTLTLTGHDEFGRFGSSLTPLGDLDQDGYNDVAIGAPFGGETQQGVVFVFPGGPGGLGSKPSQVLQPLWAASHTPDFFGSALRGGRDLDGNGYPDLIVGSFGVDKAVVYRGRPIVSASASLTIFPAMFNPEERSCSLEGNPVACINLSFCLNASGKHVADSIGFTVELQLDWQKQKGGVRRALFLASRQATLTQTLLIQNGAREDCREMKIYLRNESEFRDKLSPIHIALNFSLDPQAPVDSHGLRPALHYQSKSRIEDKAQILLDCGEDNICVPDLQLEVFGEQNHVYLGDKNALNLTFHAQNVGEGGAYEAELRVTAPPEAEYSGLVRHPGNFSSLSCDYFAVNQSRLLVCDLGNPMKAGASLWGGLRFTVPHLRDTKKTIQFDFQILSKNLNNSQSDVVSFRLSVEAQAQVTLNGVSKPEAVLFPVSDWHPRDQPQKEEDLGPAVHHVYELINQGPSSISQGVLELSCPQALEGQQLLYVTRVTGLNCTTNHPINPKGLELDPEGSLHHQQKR
# Not every detail of the peptide structures is certain; ends, links or a residue may be inferred. Where no end group is shown, it is not given here.
# Target: α5β1 (Homo sapiens, UniProt P08648)
# Test: Peptide binding study on the coated receptor
# Settings: excess (10-fold) of unlabeled peptide
# Description: The purified human recombinant α5β1 or α11β1 receptors (5 μg/ml in PBS) were coated onto 96-well ELISA plates (White Maxisorb-Nunc) by incubating overnight at 4° C. Then, the wells were blocked with blocking buffer (5% (w/v) BSA, 150 mM Nacl, 25 mM Tris) for 2 hours at room temperature. Then, the wells were washed three times with 200 μl of washing buffer (150 mM Nacl, 25 mM Tris-base, 0.005% TWEEN® 20, 0.5% BSA). Thereafter, the peptides conjugated with PEG(6)-FITC were diluted to different concentrations in washing buffer. For the competitive studies, the wells were co-incubated with 10-fold higher amount of unlabeled peptides. The plates were incubated at 37° C. for 60 minutes. Then, the wells were washed three times with washing buffer and subsequently, the plates were read for the fluorescein signal Ex/Em 485 nm/520 nm using a fluorescent plate reader (Perkin Elmer).
substance,measurement,value
"RYYRITY [AV3, RYYRITY]",blocking of nAV2-PEG-fluorescein binding to coated α5β1 by excess unlabeled peptide,strongly blocked its binding to the receptor
